These are yes or no findings as the source states them, for the method shown. Binding seen in cells or lysates may run through a third protein. Some binding calls cover weakened binding; strength is not graded here.

By UniProt entry, the sequences of proteins in these tests, tags left out.
UniProt P0A9X4: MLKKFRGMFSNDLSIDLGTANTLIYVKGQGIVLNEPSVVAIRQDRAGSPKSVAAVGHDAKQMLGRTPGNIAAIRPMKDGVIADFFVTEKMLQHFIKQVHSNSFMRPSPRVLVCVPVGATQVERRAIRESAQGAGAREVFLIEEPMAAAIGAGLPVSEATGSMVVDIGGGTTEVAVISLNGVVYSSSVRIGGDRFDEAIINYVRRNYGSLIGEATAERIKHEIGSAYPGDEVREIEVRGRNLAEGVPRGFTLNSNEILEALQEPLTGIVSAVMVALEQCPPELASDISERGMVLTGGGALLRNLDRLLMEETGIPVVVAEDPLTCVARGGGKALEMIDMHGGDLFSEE
UniProt P0CE48: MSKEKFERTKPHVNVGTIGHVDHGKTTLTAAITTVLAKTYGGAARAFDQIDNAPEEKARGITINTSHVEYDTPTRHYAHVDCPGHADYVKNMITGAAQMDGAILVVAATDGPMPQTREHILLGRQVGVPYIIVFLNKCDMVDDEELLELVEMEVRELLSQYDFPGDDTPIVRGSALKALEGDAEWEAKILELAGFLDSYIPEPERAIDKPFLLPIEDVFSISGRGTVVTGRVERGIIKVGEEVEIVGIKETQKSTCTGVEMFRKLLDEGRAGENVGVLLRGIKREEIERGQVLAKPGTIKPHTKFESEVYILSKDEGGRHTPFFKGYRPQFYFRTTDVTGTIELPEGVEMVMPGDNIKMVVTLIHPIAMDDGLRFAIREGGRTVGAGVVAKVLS

The target of experiment [1] is T1, MreC-mEosC (E. coli) (UniProt P16926).
T1 sequence: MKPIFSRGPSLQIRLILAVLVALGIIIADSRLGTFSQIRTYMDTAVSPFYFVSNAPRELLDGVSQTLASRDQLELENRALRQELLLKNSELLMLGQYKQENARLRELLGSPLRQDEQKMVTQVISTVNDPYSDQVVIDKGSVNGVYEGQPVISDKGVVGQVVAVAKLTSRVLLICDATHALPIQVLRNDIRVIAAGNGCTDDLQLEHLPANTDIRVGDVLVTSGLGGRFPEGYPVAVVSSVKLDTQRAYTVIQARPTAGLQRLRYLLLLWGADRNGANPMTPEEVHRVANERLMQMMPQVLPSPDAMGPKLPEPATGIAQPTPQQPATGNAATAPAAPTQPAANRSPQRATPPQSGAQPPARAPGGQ
Put plainly: split reporter; BiFC specificity controls with split mEos3.2 in E. coli Bl21(de3) cells, two vectors, IPTG for 1 h.

Experiment [2] concerns the target MreB-mEosC (E. coli) (UniProt P0A9X4). Put plainly: split reporter; BiFC-PALM with split mEos3.2(164E) in E. coli cells of the MreB-mEosC strain, 200 uM IPTG for 1.5 h at 30 °C; fixed cells (imaging) and live cells (single-molecule tracking).

Turning to mEosN-EF-Tu (from UniProt P0CE48 1-394), the binding entry in experiment [1] is recorded as “no binding”; in experiment [2], “binds”.

For the substance “mEosN-EF-Tu-Snap (from UniProt P0CE48 1-394)”, in experiment [2], the binding result is recorded as “binds”.

These data come from paper PMC4109008.
